# In publication PMC5996148:
# Chains of the proteins cited; added tags and fusions are not shown. Lines headed by an entry give the natural chain unless they say otherwise; changes in a name come on top.
# UniProt P49247: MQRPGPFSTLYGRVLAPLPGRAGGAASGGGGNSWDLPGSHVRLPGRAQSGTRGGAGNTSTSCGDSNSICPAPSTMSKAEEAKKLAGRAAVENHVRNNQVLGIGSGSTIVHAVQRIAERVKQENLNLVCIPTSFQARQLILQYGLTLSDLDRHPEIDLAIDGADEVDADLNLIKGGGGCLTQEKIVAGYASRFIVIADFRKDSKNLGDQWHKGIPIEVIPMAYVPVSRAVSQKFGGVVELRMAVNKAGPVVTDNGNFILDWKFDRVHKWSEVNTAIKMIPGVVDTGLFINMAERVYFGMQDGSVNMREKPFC
# Some of the results follow. For some assays here: The exact form of the protein is not confirmed.
# How the values were obtained:
# Assay in all cases: protein microarray (ProtoArray v5.0), streptavidin-Alexa Fluor 647
# Conditions in all cases: 3'-biotin; 20 mM Tris (pH 7.5), 5 mM MgCl2, 100 mM KCl, 0.1% Tween-20, A/T-rich and random oligonucleotide blockers; temperature not stated; high values mean tight binding
# RPIA = RPIA (UniProt P49247)
# RPLP2 (human) = system: RPLP2 (human)
# RPS27A (human) = system: RPS27A (human)
# RPUSD1 (human) = system: RPUSD1 (human)
# RRN3 (human) = system: RRN3 (human)
# RSPRY1 (human) = system: RSPRY1 (human)
# RTN1 = molecular target: T1, RTN1 (UniProt Q16799)
# T1 sequence: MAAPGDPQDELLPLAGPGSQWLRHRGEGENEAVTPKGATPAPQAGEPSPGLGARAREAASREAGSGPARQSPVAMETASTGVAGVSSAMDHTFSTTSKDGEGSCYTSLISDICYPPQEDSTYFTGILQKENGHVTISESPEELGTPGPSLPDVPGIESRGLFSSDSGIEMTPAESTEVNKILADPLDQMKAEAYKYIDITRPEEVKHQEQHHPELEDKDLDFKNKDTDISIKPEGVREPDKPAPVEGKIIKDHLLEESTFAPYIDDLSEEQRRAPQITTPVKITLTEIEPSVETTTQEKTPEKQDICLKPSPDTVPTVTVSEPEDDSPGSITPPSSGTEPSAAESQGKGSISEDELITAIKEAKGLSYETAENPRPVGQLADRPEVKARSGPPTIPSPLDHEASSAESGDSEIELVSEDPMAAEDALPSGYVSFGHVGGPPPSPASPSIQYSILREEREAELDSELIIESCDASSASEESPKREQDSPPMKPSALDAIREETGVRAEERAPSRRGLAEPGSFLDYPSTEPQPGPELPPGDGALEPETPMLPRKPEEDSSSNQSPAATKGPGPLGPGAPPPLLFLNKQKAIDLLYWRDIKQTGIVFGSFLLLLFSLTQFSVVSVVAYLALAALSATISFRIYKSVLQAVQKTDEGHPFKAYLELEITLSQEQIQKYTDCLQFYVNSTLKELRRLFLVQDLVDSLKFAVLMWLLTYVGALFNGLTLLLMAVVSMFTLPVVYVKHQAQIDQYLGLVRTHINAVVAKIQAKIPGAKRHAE
# RTN2 (human) = system: RTN2 (human)
# RTN4 (human) = system: RTN4 (human)
# RTP2 (human) = system: RTP2 (human)
# RUFY3 (human) = system: RUFY3 (human)
# RUNDC3A (human) = system: RUNDC3A (human)
# RUNX1T1 (human) = system: RUNX1T1 (human)
# RWDD1 (human) = system: RWDD1 (human)
# [1] = system: Rab-like protein 3 (human)
# [2] = system: Rab9 effector protein with Kelch motifs (human)
# [3] = system: Radial spoke head 10 homolog B2 (human)
# [4] = system: RanBP-type and C3HC4-type zinc finger-containing protein 1 (human)
# [5] = system: Rap1 GTPase-GDP dissociation stimulator 1 (human)
# [6] = system: Ras association domain-containing protein 3 (human)
sequence,measurement,setting,value
GGGAGGCTGAGGCAGG [G4-1 biotinylated (PQS2)],binding signal,RPIA,-0.341 z-score
same,binding signal,RPLP2 (human),-0.364 z-score
same,binding signal,RPS27A (human),-0.298 z-score
same,binding signal,RPUSD1 (human),-0.301 z-score
same,binding signal,RRN3 (human),-0.345 z-score
same,binding signal,RSPRY1 (human),-0.291 z-score
same,binding signal,RTN1,-0.339 z-score
same,binding signal,RTN2 (human),-0.302 z-score
same,binding signal,RTN4 (human),-0.341 z-score
same,binding signal,RTP2 (human),-0.312 z-score
same,binding signal,RUFY3 (human),-0.322 z-score
same,binding signal,RUNDC3A (human),-0.319 z-score
same,binding signal,RUNX1T1 (human),-0.337 z-score
same,binding signal,RWDD1 (human),-0.328 z-score
same,binding signal,[1],-0.299 z-score
same,binding signal,[2],-0.334 z-score
same,binding signal,[3],-0.264 z-score
same,binding signal,[4],-0.326 z-score
same,binding signal,[5],-0.343 z-score
same,binding signal,[6],-0.32 z-score

# 2 records drawn at random from the list so far, as already listed:
sequence,measurement,setting,value
GGGAGGCTGAGGCAGG [G4-1 biotinylated (PQS2)],binding signal,[1],-0.299 z-score
same,binding signal,[4],-0.326 z-score
